Laboratory results taken from the supplement of paper PMC12819154, “High-throughput peptide-centric local stability assay extends protein–ligand identification to membrane proteins, tissues and bacteria” (Nature Structural & Molecular Biology, 2025).
The entries are a selection whose mix differs from that of the whole data set. Small differences around the control level are noise.

Target: T1, UniProt P0A9Q9
T1 sequence (whole entry): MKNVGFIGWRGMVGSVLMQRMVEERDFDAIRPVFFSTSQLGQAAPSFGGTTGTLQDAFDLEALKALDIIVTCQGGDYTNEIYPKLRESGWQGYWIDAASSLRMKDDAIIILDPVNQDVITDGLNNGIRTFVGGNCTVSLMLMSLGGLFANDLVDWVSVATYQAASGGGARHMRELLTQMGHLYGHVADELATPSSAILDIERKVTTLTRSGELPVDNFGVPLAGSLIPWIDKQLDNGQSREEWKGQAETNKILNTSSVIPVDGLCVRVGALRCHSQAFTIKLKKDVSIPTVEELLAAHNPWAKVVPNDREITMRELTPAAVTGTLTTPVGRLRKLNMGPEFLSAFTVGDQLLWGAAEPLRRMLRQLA
Assay: log2 fold change of tryptic peptide abundance, ligand vs vehicle (limited proteolysis) (log2 ratio); higher = more trypsin-susceptible (destabilized)
Conditions: peptide sequence: NVGFIGWR; peptide start residue: 3; ligand concentration: 5 mM; sample: E. coli desalted lysate; replicate design: treated before aliquoting
Method: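 HT-PELSA: desalted E. coli K-12 BW25113 lysate (with 12 mM MgCl2) incubated with 5 mM ATP (pH 7) or water for 30 min at 25 C, then a 4 min trypsin pulse at 22 C. Peptides were quantified by DIA-MS (4 replicates). Value is the peptide log2 fold change (treated/control); negative = stabilized. Scale: negative = ligand-stabilized region.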
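Also: lysate desalted by size exclusion to strip endogenous ATP, peptide intensities built from DIA-NN precursor signals, and peptides missing any value discarded before comparison.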

Structure (SMILES) | log2 fold change
Nc1ncnc2c1ncn2[C@@H]1O[C@H](COP(=O)(O)OP(=O)(O)OP(=O)(O)O)[C@@H](O)[C@H]1O [adenosine 5'-triphosphate] | -0.31
